The test has as its target T1, YFP-Rev1 (UniProt Q9UBZ9).
T1 sequence: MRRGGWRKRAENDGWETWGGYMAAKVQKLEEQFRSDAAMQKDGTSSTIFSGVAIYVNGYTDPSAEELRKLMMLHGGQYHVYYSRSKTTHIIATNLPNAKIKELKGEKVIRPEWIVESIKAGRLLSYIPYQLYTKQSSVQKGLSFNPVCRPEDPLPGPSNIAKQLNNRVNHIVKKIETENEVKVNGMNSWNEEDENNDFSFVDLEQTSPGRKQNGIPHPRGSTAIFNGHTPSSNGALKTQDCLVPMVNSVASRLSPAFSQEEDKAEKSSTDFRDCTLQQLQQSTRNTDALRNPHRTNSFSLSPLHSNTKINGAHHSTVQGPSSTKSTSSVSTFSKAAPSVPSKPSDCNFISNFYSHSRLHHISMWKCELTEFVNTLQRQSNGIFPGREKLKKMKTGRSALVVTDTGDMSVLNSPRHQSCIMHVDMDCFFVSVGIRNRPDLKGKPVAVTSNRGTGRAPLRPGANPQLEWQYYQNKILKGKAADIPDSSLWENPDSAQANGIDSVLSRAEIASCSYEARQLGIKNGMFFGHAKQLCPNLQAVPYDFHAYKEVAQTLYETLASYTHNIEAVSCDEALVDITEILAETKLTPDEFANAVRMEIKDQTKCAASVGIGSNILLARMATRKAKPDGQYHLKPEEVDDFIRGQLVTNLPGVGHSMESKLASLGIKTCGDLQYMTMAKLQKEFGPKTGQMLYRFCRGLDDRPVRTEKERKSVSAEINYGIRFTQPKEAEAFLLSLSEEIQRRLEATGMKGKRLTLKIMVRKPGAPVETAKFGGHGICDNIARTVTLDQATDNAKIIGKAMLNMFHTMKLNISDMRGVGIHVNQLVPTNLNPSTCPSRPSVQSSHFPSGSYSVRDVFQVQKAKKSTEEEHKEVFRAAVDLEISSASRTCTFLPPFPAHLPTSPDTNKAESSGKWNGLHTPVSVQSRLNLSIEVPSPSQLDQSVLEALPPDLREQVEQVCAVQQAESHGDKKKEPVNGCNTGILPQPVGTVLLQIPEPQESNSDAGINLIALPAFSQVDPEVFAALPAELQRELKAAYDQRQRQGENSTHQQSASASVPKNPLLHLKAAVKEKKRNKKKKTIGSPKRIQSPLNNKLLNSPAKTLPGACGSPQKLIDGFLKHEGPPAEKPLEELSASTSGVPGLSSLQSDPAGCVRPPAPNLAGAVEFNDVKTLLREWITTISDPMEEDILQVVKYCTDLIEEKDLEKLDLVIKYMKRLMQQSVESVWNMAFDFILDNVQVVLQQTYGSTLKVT
Put plainly: co-IP; HEK293 cells co-transfected with YFP-Rev1 and myc-MAD2L2; treated with DMSO, c#2 or c#3 (50 uM) for 24 h before harvest; lysates in 50 mM Tris pH 8, 150 mM NaCl, 20 mM EDTA, 50 mM NaF, 1% TritonX; GFP-Trap agarose beads 1-2 h at 4 °C; blot for myc and GFP.

Sequences of proteins named here, by UniProt entry; tags and fusion partners are left off.
UniProt Q9UI95: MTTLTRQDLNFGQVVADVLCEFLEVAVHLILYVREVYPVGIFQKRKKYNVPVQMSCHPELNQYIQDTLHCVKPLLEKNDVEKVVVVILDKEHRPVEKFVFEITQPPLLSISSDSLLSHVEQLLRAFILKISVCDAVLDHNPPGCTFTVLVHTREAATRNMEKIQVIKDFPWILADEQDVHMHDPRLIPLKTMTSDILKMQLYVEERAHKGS

These are yes or no findings as the source states them, for the method shown. In cells and extracts the contact can be indirect. Some binding calls cover weakened binding; strength is not graded here. Where a sequence is shown, tags or fusion partners need not be part of it.

Regarding myc-MAD2L2 (from UniProt Q9UI95 1-211), the binding result is listed as “binds”.

Source of the values: article PMC8838411, “Disrupting the MAD2L2-Rev1 Complex Enhances Cell Death upon DNA Damage” (Molecules, 2022).
